Results from publication PMC3394778.
Results are given in words; binding and its absence hold for the method and conditions named. Sequences can lack the tags named with a protein.

Chains of the proteins cited; added tags and fusions are not shown.
UniProt P51668: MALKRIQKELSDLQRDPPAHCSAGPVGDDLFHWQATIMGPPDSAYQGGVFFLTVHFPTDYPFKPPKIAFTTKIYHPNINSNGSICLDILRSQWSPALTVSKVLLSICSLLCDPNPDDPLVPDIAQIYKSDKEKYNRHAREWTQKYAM

Biological target: GST-UbcH5a (human) (UniProt P51668)
Assay: pull-down; GST-UbcH5a coupled to Glutathione Sepharose 4B as bait, His-TdT deletion mutants as prey; binding buffer A: 50 mM Tris-HCl pH 7.4, 150 mM NaCl, 2.5 mM MgCl2, 1% TritonX-100, 10% glycerol, 1 mM DTT; immunoblot with anti-His; both purified

- binding: no binding
B1: His-TdT del 1 (1–262) (domain or fragment, UniProt P06526 1-262)
chain: MDPLCTASSGPRKKRPRQVGASMASPPHDIKFQNLVLFILEKKMGTTRRNFLMELARRKGFRVENELSDSVTHIVAENNSGSEVLEWLQVQNIRASSQLELLDVSWLIESMGAGKPVEITGKHQLVVRTDYSATPNPGFQKTPPLAVKKISQYACQRKTTLNNYNHIFTDAFEILAENSEFKENEVSYVTFMRAASVLKSLPFTIISMKDTEGIPCLGDKVKCIIEEIIEDGESSEVKAVLNDERYQSFKLFTSVFGVGLKT
